{"source": "patent US10114931B2", "about": "“Pharmaceutical platform technology for the development of natural products” (Sinoveda Canada Inc., priority 2007, dated 2018)", "origin": "cited, not measured here", "conditions": "aglycones; high first-pass gut and/or liver metabolism", "note": "Some results were stated once for a whole list of compounds, not compound by compound."}
{"smiles": "O=c1c(-c2ccc(O)cc2)coc2cc(O)cc(O)c12", "note": "[genistein]", "values": [{"measurement": "Bioavailability", "value": "less than 5%"}]}
